# Experimental data published in article doi:10.1101/2020.09.22.307215.
# Chains of the proteins cited; added tags and fusions are not shown.
# UniProt P48431: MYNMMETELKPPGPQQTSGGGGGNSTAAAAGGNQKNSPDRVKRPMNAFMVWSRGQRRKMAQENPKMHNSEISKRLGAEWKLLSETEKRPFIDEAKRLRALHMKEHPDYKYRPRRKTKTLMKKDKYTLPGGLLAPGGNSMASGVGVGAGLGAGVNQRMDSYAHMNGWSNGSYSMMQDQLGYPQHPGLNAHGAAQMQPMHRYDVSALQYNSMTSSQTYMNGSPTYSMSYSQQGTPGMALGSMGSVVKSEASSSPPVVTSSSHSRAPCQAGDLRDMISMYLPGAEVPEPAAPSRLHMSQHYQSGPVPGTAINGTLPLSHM
# UniProt Q3TKT4: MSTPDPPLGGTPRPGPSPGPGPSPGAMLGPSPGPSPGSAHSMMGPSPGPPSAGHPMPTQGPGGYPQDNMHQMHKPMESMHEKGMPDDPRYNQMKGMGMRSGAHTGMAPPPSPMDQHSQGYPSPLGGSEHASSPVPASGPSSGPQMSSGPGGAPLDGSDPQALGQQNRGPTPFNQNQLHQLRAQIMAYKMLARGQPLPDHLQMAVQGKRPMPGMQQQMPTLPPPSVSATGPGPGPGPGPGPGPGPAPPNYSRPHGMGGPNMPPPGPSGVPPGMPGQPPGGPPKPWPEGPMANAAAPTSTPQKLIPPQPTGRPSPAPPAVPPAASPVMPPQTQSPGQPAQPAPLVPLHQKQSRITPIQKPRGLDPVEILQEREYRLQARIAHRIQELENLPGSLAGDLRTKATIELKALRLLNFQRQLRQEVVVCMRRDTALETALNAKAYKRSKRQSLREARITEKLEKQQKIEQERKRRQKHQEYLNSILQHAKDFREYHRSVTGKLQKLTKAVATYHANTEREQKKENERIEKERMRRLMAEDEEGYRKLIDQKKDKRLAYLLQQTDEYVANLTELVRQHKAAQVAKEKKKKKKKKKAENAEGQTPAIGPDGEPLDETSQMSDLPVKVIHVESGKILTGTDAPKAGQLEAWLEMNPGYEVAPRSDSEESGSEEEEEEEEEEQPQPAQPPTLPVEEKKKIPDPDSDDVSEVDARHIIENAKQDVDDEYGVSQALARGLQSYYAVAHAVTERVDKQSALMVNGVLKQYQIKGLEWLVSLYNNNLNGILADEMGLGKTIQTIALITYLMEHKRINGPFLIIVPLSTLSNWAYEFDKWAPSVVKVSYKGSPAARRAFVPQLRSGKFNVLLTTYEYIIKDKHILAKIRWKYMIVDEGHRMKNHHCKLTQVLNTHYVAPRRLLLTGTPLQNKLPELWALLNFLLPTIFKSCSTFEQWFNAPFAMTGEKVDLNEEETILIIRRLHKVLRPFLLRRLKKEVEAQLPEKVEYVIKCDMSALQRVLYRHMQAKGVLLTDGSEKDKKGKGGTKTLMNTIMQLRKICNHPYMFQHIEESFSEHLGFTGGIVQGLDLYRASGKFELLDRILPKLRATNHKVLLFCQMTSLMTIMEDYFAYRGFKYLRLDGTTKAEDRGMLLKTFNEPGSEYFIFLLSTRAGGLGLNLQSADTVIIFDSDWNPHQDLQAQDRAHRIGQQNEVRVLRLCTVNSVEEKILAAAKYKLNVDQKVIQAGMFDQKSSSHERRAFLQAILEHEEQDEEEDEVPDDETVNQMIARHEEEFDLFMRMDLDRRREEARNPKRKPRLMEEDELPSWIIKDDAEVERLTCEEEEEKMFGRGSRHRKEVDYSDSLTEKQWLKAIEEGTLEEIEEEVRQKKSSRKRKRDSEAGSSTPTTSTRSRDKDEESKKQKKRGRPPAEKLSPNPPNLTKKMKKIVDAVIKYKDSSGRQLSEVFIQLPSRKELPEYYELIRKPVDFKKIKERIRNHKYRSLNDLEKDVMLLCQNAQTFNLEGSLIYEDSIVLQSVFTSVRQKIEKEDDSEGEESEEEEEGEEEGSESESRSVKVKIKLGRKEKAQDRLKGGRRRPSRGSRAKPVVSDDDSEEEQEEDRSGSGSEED
# These are yes or no findings as the source states them, for the method shown. Some entries that bind do so weakly or less than the wild type.
# Biological target: GST-Sox2 (UniProt P48431)
# Assay: pull-down
substance,measurement,value
flag-tagged Smarca4 (from UniProt Q3TKT4 1-1613),binding,binds
